US7252951B2, “Essential downstream component of the wingless signaling pathway and therapeutic and diagnostic applications based thereon” (Universität Zurich, priority 2000, dated 2007)
No constants are given. Whether binding was seen depends on the method and setting. Some entries that bind do so weakly or less than the wild type.

T1: Armadillo (Arm), Drosophila homologue of β-Catenin (Drosophila) (UniProt P18824)
T1 sequence (looked up): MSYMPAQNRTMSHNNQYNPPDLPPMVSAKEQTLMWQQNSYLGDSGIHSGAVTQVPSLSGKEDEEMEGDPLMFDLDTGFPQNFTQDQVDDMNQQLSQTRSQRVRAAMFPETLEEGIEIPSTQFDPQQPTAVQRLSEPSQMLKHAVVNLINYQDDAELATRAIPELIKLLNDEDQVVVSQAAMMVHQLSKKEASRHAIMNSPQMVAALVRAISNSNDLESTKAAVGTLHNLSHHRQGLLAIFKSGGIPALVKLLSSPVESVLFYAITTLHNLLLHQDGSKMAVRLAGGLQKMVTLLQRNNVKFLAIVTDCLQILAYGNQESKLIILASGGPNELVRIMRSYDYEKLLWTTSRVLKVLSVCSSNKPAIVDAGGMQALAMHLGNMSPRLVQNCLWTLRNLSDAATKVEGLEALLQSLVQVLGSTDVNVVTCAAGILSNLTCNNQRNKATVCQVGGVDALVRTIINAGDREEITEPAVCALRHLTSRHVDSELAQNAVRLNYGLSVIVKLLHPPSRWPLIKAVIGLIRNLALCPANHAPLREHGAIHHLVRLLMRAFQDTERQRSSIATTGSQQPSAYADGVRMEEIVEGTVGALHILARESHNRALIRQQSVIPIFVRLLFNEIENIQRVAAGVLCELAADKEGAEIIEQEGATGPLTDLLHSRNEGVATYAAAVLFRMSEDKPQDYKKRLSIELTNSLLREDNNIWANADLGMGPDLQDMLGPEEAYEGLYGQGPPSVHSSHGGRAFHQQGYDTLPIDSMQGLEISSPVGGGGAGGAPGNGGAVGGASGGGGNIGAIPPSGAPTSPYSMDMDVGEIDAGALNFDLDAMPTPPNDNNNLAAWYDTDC

T2: human Lgs/Bcl9 (hLgs/Bcl9) (human) (UniProt O00512)
T2 sequence: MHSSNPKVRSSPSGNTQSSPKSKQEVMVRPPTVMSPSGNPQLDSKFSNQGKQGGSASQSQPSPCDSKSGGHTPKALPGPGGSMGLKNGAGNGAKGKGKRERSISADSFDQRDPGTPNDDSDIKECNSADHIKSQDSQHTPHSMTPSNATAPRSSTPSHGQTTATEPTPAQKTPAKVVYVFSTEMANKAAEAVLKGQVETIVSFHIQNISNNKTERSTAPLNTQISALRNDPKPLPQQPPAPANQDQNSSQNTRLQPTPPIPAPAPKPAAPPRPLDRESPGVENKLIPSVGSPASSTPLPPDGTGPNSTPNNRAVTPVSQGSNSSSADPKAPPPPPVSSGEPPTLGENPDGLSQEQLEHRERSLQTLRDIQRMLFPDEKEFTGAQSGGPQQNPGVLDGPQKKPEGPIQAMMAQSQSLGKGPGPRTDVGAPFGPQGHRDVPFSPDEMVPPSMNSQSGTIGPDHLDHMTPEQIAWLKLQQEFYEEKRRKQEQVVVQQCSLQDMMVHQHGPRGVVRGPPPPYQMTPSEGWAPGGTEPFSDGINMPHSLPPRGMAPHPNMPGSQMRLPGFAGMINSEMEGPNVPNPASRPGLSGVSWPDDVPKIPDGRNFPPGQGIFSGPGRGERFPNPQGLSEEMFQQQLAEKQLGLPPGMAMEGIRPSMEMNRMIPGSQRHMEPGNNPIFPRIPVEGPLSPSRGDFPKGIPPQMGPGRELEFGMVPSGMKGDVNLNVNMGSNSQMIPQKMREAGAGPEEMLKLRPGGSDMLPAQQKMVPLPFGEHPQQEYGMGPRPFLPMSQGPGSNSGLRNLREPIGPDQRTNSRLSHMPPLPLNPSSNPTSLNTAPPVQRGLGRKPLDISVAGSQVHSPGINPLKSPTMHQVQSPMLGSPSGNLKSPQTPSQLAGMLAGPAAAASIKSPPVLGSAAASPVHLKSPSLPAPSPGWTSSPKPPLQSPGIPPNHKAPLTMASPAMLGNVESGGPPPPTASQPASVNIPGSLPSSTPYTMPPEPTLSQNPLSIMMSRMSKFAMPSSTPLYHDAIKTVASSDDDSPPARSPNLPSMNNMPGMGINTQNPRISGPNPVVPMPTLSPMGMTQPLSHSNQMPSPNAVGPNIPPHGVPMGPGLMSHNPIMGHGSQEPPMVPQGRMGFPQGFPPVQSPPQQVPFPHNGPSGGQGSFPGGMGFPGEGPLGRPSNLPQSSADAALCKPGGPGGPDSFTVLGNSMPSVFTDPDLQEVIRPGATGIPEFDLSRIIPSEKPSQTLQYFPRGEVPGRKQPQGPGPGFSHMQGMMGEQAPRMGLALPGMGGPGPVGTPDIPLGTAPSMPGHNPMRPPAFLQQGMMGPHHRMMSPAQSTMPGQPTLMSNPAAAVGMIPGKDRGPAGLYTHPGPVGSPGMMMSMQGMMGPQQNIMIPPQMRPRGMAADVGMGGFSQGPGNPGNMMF


Assays:
[1] = biological target: T1, Armadillo (Arm), Drosophila homologue of β-Catenin (Drosophila); experiment: genetic and biochemical experiments, method not given
[2] = biological target: T2, human Lgs/Bcl9 (hLgs/Bcl9) (human); experiment: yeast two-hybrid

binding [1]	binding [2]	Binder
binds		human Lgs/Bcl9 (hLgs/Bcl9) (protein) MHSSNPKVRSSPSGNTQSSPKSKQEVMVRPPTVMSPSGNPQLDSKFSNQGKQGGSASQSQPSPCDSKSGGHTPKALPGPGGSMGLKNGAGNGAKGKGKRERSISADSFDQRDPGTPNDDSDIKECNSADHIKSQDSQHTPHSMTPSNATAPRSSTPSHGQTTATEPTPAQKTPAKVVYVFSTEMANKAAEAVLKGQVETIVSFHIQNISNNKTERSTAPLNTQISALRNDPKPLPQQPPAPANQDQNSSQNTRLQPTPPIPAPAPKPAAPPRPLDRESPGVENKLIPSVGSPASSTPLPPDGTGPNSTPNNRAVTPVSQGSNSSSADPKAPPPPPVSSGEPPTLGENPDGLSQEQLEHRERSLQTLRDIQRMLFPDEKEFTGAQSGGPQQNPGVLDGPQKKPEGPIQAMMAQSQSLGKGPGPRTDVGAPFGPQGHRDVPFSPDEMVPPSMNSQSGTIGPDHLDHMTPEQIAWLKLQQEFYEEKRRKQEQVVVQQCSLQDMMVHQHGPRGVVRGPPPPYQMTPSEGWAPGGTEPFSDGINMPHSLPPRGMAPHPNMPGSQMRLPGFAGMINSEMEGPNVPNPASRPGLSGVSWPDDVPKIPDGRNFPPGQGIFSGPGRGERFPNPQGLSEEMFQQQLAEKQLGLPPGMAMEGIRPSMEMNRMIPGSQRHMEPGNNPIFPRIPVEGPLSPSRGDFPKGIPPQMGPGRELEFGMVPSGMKGDVNLNVNMGSNSQMIPQKMREAGAGPEEMLKLRPGGSDMLPAQQKMVPLPFGEHPQQEYGMGPRPFLPMSQGPGSNSGLRNLREPIGPDQRTNSRLSHMPPLPLNPSSNPTSLNTAPPVQRGLGRKPLDISVAGSQVHSPGINPLKSPTMHQVQSPMLGSPSGNLKSPQTPSQLAGMLAGPAAAASIKSPPVLGSAAASPVHLKSPSLPAPSPGWTSSPKPPLQSPGIPPNHKAPLTMASPAMLGNVESGGPPPPTASQPASVNIPGSLPSSTPYTMPPEPTLSQNPLSIMMSRMSKFAMPSSTPLYHDAIKTVASSDDDSPPARSPNLPSMNNMPGMGINTQNPRISGPNPVVPMPTLSPMGMTQPLSHSNQMPSPNAVGPNIPPHGVPMGPGLMSHNPIMGHGSQEPPMVPQGRMGFPQGFPPVQSPPQQVPFPHNGPSGGQGSFPGGMGFPGEGPLGRPSNLPQSSADAALCKPGGPGGPDSFTVLGNSMPSVFTDPDLQEVIRPGATGIPEFDLSRIIPSEKPSQTLQYFPRGEVPGRKQPQGPGPGFSHMQGMMGEQAPRMGLALPGMGGPGPVGTPDIPLGTAPSMPGHNPMRPPAFLQQGMMGPHHRMMSPAQSTMPGQPTLMSNPAAAVGMIPGKDRGPAGLYTHPGPVGSPGMMMSMQGMMGPQQNIMIPPQMRPRGMAADVGMGGFSQGPGNPGNMMF
	binds	Daughter of Legless (dDoll) (protein, Drosophila, UniProt Q9V9W8 1-815, looked up) MTHNLGMAPYRLPGPAGGLCPPDFKPPPPTDIISAPSNPKKRRKTSSAANSAAAVAAAAAAAAAANSMQQQQAPPTPQDLLPPPPMGGFGDTIIASNPFDDSPQVSAMSSSAAAAMAAMNQMGGGPGGGHFGGGGPGGHPHWEDRMGMGGGPPPPPHMHPHMHPHHPGGPMGHPHGPHPHMGGPPPMRGMSPMHPHQMGPGPGVGLPPHMNHGRPGGPGGPGGPVPMGSPMGGIAGMGGMSPMGGMGGPSISPHHMGMGGLSPMGGGPNGPNPRAMQGSPMGGPGQNSPMNSLPMGSPMGNPIGSPLGPPSGPGPGNPGNTGGPQQQQQQPPQPPMNNGQMGPPPLHSPLGNGPTGHGSHMPGGPIPGPGPGPGGLVGPGGISPAHGNNPGGSGNNMLGGNPGGGNSNNNGSNTSNASNNNQNPHLSPAAGRLGVPTSMQSNGPSVSSVASSSVPSPATPTLTPTSTATSMSTSVPTSSPAPPAMSPHHSLNSAGPSPGMPNSGPSPLQSPAGPNGPNNNNSNNNNGPMMGQMIPNAVPMQHQQHMGGGPPGHGPGPMPGMGMNQMLPPQQPSHLGPPHPNMMNHPHHPHHHPGGPPPHMMGGPGMHGGPAGMPPHMGGGPNPHMMGGPHGNAGPHMGHGHMGGVPGPGPGPGGMNGPPHPHMSPHHGHPHHHHNPMGGPGPNMFGGGGGGPMGPGGPMGNMGPMGGGPMGGPMGVGPKPMTMGGGKMYPPGQPMVFNPQNPNAPPIYPCGMCHKEVNDNDEAVFCESGCNFFFHRTCVGLTEAAFQMLNKEVFAEWCCDKCVSSKHIPMVKFKC
